Results reported in paper PMC6240879.
Results are given in words; binding and its absence hold for the method and conditions named. Binding seen in cells or lysates may run through a third protein. Some binding calls cover weakened binding; strength is not graded here.

By UniProt entry, the sequences of proteins in these tests, tags left out. Residues count along the entry.
UniProt Q8BMS1, residues 37-763: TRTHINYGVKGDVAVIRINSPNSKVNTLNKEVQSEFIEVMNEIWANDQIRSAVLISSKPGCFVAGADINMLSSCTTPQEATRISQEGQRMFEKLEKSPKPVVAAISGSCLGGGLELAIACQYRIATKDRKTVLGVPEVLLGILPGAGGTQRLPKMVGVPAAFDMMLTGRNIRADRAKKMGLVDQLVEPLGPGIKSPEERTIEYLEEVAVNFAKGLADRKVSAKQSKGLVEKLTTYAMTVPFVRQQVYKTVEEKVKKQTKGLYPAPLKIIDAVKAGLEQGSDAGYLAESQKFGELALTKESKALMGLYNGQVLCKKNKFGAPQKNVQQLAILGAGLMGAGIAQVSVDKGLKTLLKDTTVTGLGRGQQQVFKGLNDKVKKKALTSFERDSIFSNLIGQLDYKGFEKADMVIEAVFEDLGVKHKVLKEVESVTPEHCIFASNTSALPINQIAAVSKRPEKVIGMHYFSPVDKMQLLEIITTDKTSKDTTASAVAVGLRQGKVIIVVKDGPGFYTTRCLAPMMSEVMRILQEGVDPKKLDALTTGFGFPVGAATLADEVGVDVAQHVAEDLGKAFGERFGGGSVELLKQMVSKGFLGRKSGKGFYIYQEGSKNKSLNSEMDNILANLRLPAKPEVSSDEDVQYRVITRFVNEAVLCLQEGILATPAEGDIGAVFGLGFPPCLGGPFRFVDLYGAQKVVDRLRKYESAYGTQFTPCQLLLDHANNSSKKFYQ

Biological target: T1, GCN5 general control of amino acid synthesis 5-like 1 (GCN5L1) (mouse (endogenous in mouse liver)) (UniProt O55102)
T1 sequence: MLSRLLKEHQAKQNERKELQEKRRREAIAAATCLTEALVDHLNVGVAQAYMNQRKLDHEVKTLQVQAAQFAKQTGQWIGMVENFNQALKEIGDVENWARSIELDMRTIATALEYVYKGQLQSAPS
Assay: co-IP; mouse liver tissue lysate in 1x CHAPS buffer, incubated overnight at 4 °C with the relevant antibody or an IgG control; Protein G-agarose beads, washed with CHAPS buffer, eluted in LDS sample buffer at 95 °C; Western blot

Q: Which binding does the source give for “hydroxyacyl-CoA dehydrogenase trifunctional multienzyme complex subunit α (HADHA) (from UniProt Q8BMS1 37-763)” here?
A: binds
